At least one compound was matched to its structure with a doubt left.
Test system: A2B5+ glioma TPCs (GCL) subcutaneous xenograft
Assay: subcutaneous heterotopic A2B5+ glioma TPC xenograft, tumor volume
Format: in vivo, immunodeficient NOG mice
Settings: 37.5 mg/kg twice daily oral gavage; corresponds to 11, 13 and 15 days of gavage
Method: Dabigatran etexilate (Pradaxa) was obtained as 150 mg capsules from Boehringer Ingelheim (Ingelheim, Germany) for in vivo experiments. Each capsule was freshly dissolved in 4 ml of acidic water to yield 37.5 mg/ml. Dabigatran etexilate was dosed depending of the body weight of the mouse, twice a day, using oral gavage. For in vitro analysis, the chemical compound dabigatran etexilate (BIER-1048) was purchased from Cedarlane USA (S2154-5 mg) and dissolved in dimethylsulfoxide (DMSO) following manufacturer's instructions.
Glioma cells and/or A2B5^+ TPCs (1-4E^+06 cells/animal) were collected, resuspended in 75 μl of media, and mixed (1:1) with Matrigel (9.8 mg/ml), prior to subcutaneous injection (150 μl, final volume) into the flanks of immunodeficient NOG mice (5-8 weeks) (1-4E^+06 cells/animal). Subcutaneous tumor growth was measured every other day morphometrically using vernier calipers, and tumor volumes were estimated according to the formula a^2b/2, where a and b are the shorter and longer diameters of the tumor, respectively. […] The remaining mice were gavaged at the same times with vehicle control (acidic water). […]
To translate these findings into a clinically relevant approach, the anti-tumor activity of dabigatran was further evaluated in vivo. […] Tumor volume was then measured every other day using vernier calipers. […]

CCCCCCOC(=O)NC(=N)c1ccc(NCc2nc3cc(C(=O)N(CCC(=O)OCC)c4ccccn4)ccc3n2C)cc1 [dabigatran etexilate]
days post-transplantation at which the anti-tumor effect was significant: 22, 24, and 26 days
